# The other results are listed elsewhere or left out. These are further read-outs of the screen, such as a control signal, another cell line or another target. No call is given for them. The list favours compounds with an active or inconclusive main result. Potencies come from curve fits of mixed quality, noted in brackets.
# Test: qHTS Assay for Lipid Storage Modulators in Drosophila S3 Cells;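 for cell number change: cells counted by Cell Tracker Red CMTPX staining in the red channel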
# Conditions: BODIPY lipid droplet fluorescence, 18-24 h; for cell number change: measured here: cell count max response, cells fed with added oleic acid
# Outline: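 Drosophila S3 cells got compounds at several concentrations plus oleic acid (400 uM solution). Laser-scanning cytometry with 488 nm excitation read lipid droplets at 500-530 nm and cells at 575-640 nm. Percent activity was relative to 20 uM Triacsin C.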
# [1] = measured here: lipid fluorescence (Fed channel) AC50, cells fed with added oleic acid
# [2] = measured here: cell number channel AC50, cells fed with added oleic acid
SMILES,cell number change,AC50 [1],AC50 [2]
CC(=O)Nc1ccc(NC(=O)CSc2nc3nc(C)cc(C)c3c(=O)[nH]2)cc1,15.9%,"2.59 µM [rising, full curve]",
CCOc1cc(N2CCOCC2)c(OCC)cc1NC(=O)COC(=O)c1ccccc1C,4.83%,,"0.326 µM [rising, full curve, poor fit]"
CC(C(=O)Nc1nc(-c2ccc(F)c(F)c2)cs1)N1C(=O)C2CC=CCC2C1=O (stereo not drawn),-24.1%,"5.8 µM [falling, single point]",
O=C(CCCN1C(=O)/C(=C/c2ccccc2)SC1=S)NCCCn1ccnc1,0.472%,"2.91 µM [falling, single point]",
CN(C)/C=C/C(=O)c1ncc(C(F)(F)F)cc1Cl,-44.6%,"1.3 µM [falling, full curve]","0.231 µM [falling, full curve, poor fit]"
O=C(O)c1cc(-c2ccc(/C=N/NC(=S)Nc3ccccc3)o2)ccc1Cl,19.1%,,"6.51 µM [falling, single point]"
COc1cccc(NC(=O)CN2CCSc3ccccc32)c1,13.9%,,"4.11 µM [rising, single point]"
COc1ccc(CNC(=O)C2CCC(=O)N(CCCN3CCCC3=O)C2)cc1 (stereo not drawn),24.6%,"29.1 µM [rising, single point]",
CC(C)(C)S(=O)(=O)c1cnc2c(S(=O)(=O)c3ccccc3)cnn2c1N,6.26%,,
CCC(=O)Nc1cc(C(=O)NCC2CCCN2CC)c(OC)cc1N(C)C (stereo not drawn),,"3.66 µM [falling, single point]",
COc1ccccc1N(C(=O)c1ccco1)C(C(=O)NC1CCCC1)c1cccnc1 (stereo not drawn),31.4%,,"3.26 µM [rising, partial curve]"
O=C(COc1ccc([N+](=O)[O-])cc1)N(C1CCCCC1)C1CCS(=O)(=O)C1 (stereo not drawn),45.4%,,"25.9 µM [rising, single point]"
O=C1/C(=N\S(=O)(=O)c2cccs2)C([n+]2cccc(Cc3ccccc3)c2)=C([O-])c2ccccc21,,"16.4 µM [falling, partial curve]",
COc1cccc(C(=O)CC(=O)C(=O)Nc2cc(OC)ccc2OC)c1,5.85%,"0.651 µM [rising, full curve]",
c1ccc(-c2nnc(CSc3nncs3)o2)cc1,315%,"29.1 µM [rising, partial curve]","29.1 µM [rising, partial curve]"
COC(=O)c1cccc(S(=O)(=O)N(Cc2ccco2)Cc2cc3cc(OC)c(OC)cc3[nH]c2=O)c1,-0.483%,"1.64 µM [rising, full curve]","1.64 µM [rising, partial curve]"
Nc1nc(SCc2ccc(Cl)cc2Cl)ns1,-51.1%,"29.1 µM [falling, single point]","29.1 µM [falling, single point]"
COc1ccc(/C=N/n2cc(-c3ccccc3)nc2N)cc1,,"0.13 µM [rising, full curve, poor fit]",
CCSc1nnc(NC(=O)CN2C(=O)N(C)C3(CCCCC3)C2=O)s1,,"4.11 µM [falling, single point]","5.8 µM [falling, single point]"
Cc1nonc1OCCNc1ccc([N+](=O)[O-])cc1,-10.8%,"20.6 µM [rising, partial curve, poor fit]",

SMILES,cell number change,AC50 [1],AC50 [2]
NC(=O)N/N=C1\CCS(=O)(=O)c2ccc(F)cc21,32.6%,"29.1 µM [rising, single point]","0.00517 µM [rising, full curve, poor fit]"
O=Cc1ccc(OCc2nnsc2Cl)cc1,-10%,"4.11 µM [falling, full curve, poor fit]",
NC(=O)COC(=O)CNC(=O)c1ccc(Cl)cc1,-16.8%,"0.00461 µM [falling, full curve, poor fit]",
C=CCNc1nnnc2c1sc1nc(N3CCOCC3)c3c(c12)CCCC3,8.42%,"3.26 µM [rising, partial curve, poor fit]",
O=C(NCc1ccco1)c1ccc([N+](=O)[O-])cc1Cl,28.2%,"29.1 µM [rising, single point]",
Cn1c(=O)c(NCCc2ccccc2)c2c3c(cccc31)C(=O)c1ccccc1-2,-99.8%,,
O=C(NCCSc1ccccc1)c1ccccc1,9.06%,"16.4 µM [rising, single point]",
Cc1ccc(N=C2NC(=O)c3cc([N+](=O)[O-])ccc32)cc1,11.4%,"20.6 µM [rising, partial curve, poor fit]",
CCOC(=O)C1=NOC(C(=O)NN(C)c2ncc(C(F)(F)F)cc2Cl)C1 (stereo not drawn),-39.5%,"23.1 µM [falling, single point]","13 µM [falling, partial curve, poor fit]"
Fc1ccccc1CSc1nnc(Cn2cnc3ccccc32)n1-c1ccccc1,-11.1%,"1.16 µM [falling, partial curve]",
O=C(CSc1nnc(C2COc3ccccc3O2)o1)N1CCCC1 (stereo not drawn),,"0.146 µM [falling, full curve, poor fit]","0.92 µM [falling, full curve]"
CC(C)C(=O)Nc1nnc(-c2ccccc2)o1,-21.8%,"2.06 µM [falling, partial curve, poor fit]",
N#Cc1c(-c2ccccc2)[nH]c(=S)[nH]c1=O,-25.8%,"0.259 µM [falling, full curve, poor fit]",
CN(C)c1ccc(CNC(=O)c2cc(S(=O)(=O)N3CCCC3)cn2C)cc1,6.63%,,
O=C(Nc1ccc(N2CCN(C(=O)c3ccco3)CC2)cc1)c1cccc(F)c1,-22.4%,"9.2 µM [falling, partial curve, poor fit]",
CC(C)(C)NC(=O)NC(=O)CSc1n[nH]c(-c2ccccc2Br)n1,18.1%,,
Cc1cccc(-n2cc3c(=O)n(C)c(=O)n(C)c3c2)c1,-3.62%,,
COc1cccc(-n2nnnc2SCC(=O)Nc2cccc(C)n2)c1,-7.19%,,
O=C(CN1C(=O)NC2(CCc3ccccc32)C1=O)NCCc1ccccc1 (stereo not drawn),0.979%,"6.51 µM [falling, single point]",
C=C(C)COc1ccc2c(C)c(CCC(=O)N3C[C@H]4C[C@@H](C3)c3cccc(=O)n3C4)c(=O)oc2c1,14.9%,"0.58 µM [rising, single point]",

# Random excerpt: two records from the list, in no set order.
SMILES,cell number change,AC50 [1],AC50 [2]
O=C(NCCSc1ccccc1)c1ccccc1,9.06%,"16.4 µM [rising, single point]",
CN(C)c1ccc(CNC(=O)c2cc(S(=O)(=O)N3CCCC3)cn2C)cc1,6.63%,,

# Next structures follow.

SMILES,cell number change,AC50 [1],AC50 [2]
Cc1cccc(NC(=S)NNC(=O)c2ccccc2Br)c1,-22.8%,"6.51 µM [falling, single point]","1.3 µM [falling, single point]"
O=C(NCc1ccc(Cl)cc1)c1ccc(OCC2CCCO2)cc1 (stereo not drawn),20.7%,"9.2 µM [rising, partial curve]",
Cc1ccc2nc(NC(=O)c3cccc(-c4cc5ccccc5oc4=O)c3)sc2c1,9.9%,,"3.26 µM [rising, single point]"
COc1ccccc1N1CCN(C(c2ccc(Cl)cc2)c2nnnn2C(C)(C)C)CC1 (stereo not drawn),-43.9%,"29.1 µM [falling, partial curve]","1.46 µM [falling, full curve]"
S=C1SCN(Cc2cccnc2)CN1Cc1cccnc1,-15.8%,"0.00517 µM [falling, full curve, poor fit]","0.731 µM [falling, full curve, poor fit]"
O=C(CCNC(=O)c1ccc(Br)cc1)NCCCSc1ccccc1,14.1%,,
O=C(NCc1ccco1)C(c1ccccc1)N(Cc1cccnc1)C(=O)Cn1nnc2ccccc21 (stereo not drawn),-5.45%,"0.731 µM [rising, full curve]",
Nn1c(SCCOc2ccccc2)nnc1-c1cccnc1,17.2%,"5.17 µM [rising, partial curve, poor fit]",
CN(C)/C=C1\SC(=S)N(c2ccc(Br)cc2)C1=O,-95.3%,"23.1 µM [falling, partial curve]","29.1 µM [falling, single point]"
O=C(Nc1cccc(F)c1)C1CCN(C(=O)Cc2ccccc2)CC1,7.74%,"29.1 µM [rising, single point]",
N#C/C(=C(/O)CCl)c1nnc2n1CCCCC2,-24.6%,"6.51 µM [falling, single point]","6.51 µM [falling, single point]"
Cc1ccccc1OCCC(=O)OCC(=O)NC1CCCCC1,4.34%,"29.1 µM [falling, single point]",
Cc1ccc(NS(=O)(=O)c2ccc(NC(=O)c3cccc(NC(=O)C(C)C)c3)cc2)cc1,11.9%,"29.1 µM [rising, single point]",
CC(C)C(C(=O)NCC1CCCO1)N(Cc1ccccc1)C(=O)CNS(=O)(=O)c1ccccc1 (stereo not drawn),-3.33%,"0.82 µM [falling, single point]",
COc1ccc(S(=O)(=O)N2CCCCCC2)cc1NC(=O)Cc1cc(OC)c(OC)c(OC)c1,,,"0.651 µM [rising, partial curve, poor fit]"
COc1ccccc1C(=O)Nc1nc(-c2cccs2)c(NC(C)=O)s1,-51.7%,,"29.1 µM [falling, single point]"
CCN1CCS/C1=C/C=C/C1=[N+](CC)CCS1,-58.6%,"4.61 µM [falling, full curve]","6.51 µM [falling, full curve]"
CCN(CC(=O)Nc1ccccc1OC)C(=O)c1ccc2[nH]c3c(c2c1)CC(C)CC3 (stereo not drawn),-8.06%,"3.66 µM [rising, partial curve, poor fit]","2.91 µM [rising, single point]"

# Reference: PubChem BioAssay AID2685 (National Center for Advancing Translational Sciences (NCATS), 2010)
